Measured values from patent publication US10125121B2, “FYN kinase inhibitors” (ROTTAPHARM BIOTECH S.R.L., priority 2015, dated 2018).
Some results were stated once for a whole list of compounds, not compound by compound.

Test system: JB6 CI 41-5a (P+)
Assay: Toxicity in JB6 cells (MTT method)
Type: cell-based, murine
Conditions: 3 μmolar, 24 hours of incubation
Protocol: Cell toxicity analysis in JB6 CI 41-5a (P+) is important to determine if the results obtained in GR assay are due to the pharmacological effect or to a toxicity effect of the products.
The murine epithelial cell line JB6 CI 41-5a (P+) (ATCC® Cat. # CRL-2010) was used to analyze the products cell toxicity by MTT method. 10^4 cells/well were plated in a 96× well plate MEM 5%. 48 h after plating the cells were pre-treated with the different compounds and positive standards for 1 h and then stimulated with TNFα (to simulate the same experimental conditions used in the gene reporter assay) for 4 and 24 h. At the end of the incubation time, the medium was removed and was substituted with a mixture 10:1 of MEM 5% MTT (2 mg/ml) for 1 h at 37° C. in the cell incubator. MTT is a tetrazolium salt especially useful for assaying the quantification of living metabolically active cells; it works by being metabolized by mitochondrial dehydrogenases to form a formazan dye (salt). After this incubation the supernatant was removed and the precipitated salt was dissolved with 100 μl of DMSO. The plate was then read at 540 nm. 100 μl of DMSO alone (without cells) were used as a blank, that was subtracted from the measure of each sample.

SMILES: O=C(Nc1ccc(CN2CCN(c3nccc(Nc4cc(C5CC5)[nH]n4)n3)CC2)cc1)c1ncccc1C(F)(F)F [Compound 26, N-(4-((4-(4-((5-cyclopropyl-1H-pyrazol-3-yl)amino)pyrimidin-2-yl)piperazin-1-yl)methyl)phenyl)-3-(trifluoromethyl)-picolinamide]
- percent residual cell vitality: higher than 50%

SMILES: O=C(Nc1ccc(CN2CCN(c3nccc(Nc4cc(C5CC5)[nH]n4)n3)CC2)cc1)c1ccccc1C(F)(F)F [Compound 2, N-(4-((4-(4-((5-cyclopropyl-1H-pyrazol-3-yl)amino)pyrimidin-2-yl)piperazin-1-yl)methyl)phenyl)-2-(trifluoromethyl)-benzamide]
- percent residual cell vitality: higher than 50%

SMILES: Cc1nc(C(=O)Nc2ccc(CN3CCN(c4nccc(Nc5cc(C6CC6)[nH]n5)n4)CC3)cc2)c(C(F)(F)F)o1 [Compound 21, N-(4-((4-(4-((5-cyclopropyl-1H-pyrazol-3-yl)amino)pyrimidin-2-yl)piperazin-1-yl)methyl)phenyl)-2-methyl-5-(trifluoromethyl)oxazole-4-carboxamide]
- percent residual cell vitality: higher than 50%
